# Results from the supplement of paper PMC11438910.
# This is one part of the list. Most of these values are background signal.
# Legend:
# Experiment in all cases: fluorescence intensity of antibody binding to polysaccharide-coupled beads; higher = stronger binding
# [1] = target: pneumococcal polysaccharide Pn23F
# [2] = target: pneumococcal polysaccharide Pn24A
# [3] = target: pneumococcal polysaccharide Pn24B
# [4] = target: pneumococcal polysaccharide Pn24F
# [5] = target: pneumococcal polysaccharide Pn25A
# [6] = target: pneumococcal polysaccharide Pn25F
# [7] = target: pneumococcal polysaccharide Pn27
# [8] = target: pneumococcal polysaccharide Pn28A
# [9] = target: pneumococcal polysaccharide Pn28F
# [10] = target: pneumococcal polysaccharide Pn29
# [11] = target: pneumococcal polysaccharide Pn3
# [12] = target: pneumococcal polysaccharide Pn31
# [13] = target: pneumococcal polysaccharide Pn32A
# [14] = target: pneumococcal polysaccharide Pn32F
# [15] = target: pneumococcal polysaccharide Pn33A
# [16] = target: pneumococcal polysaccharide Pn33B
# [17] = target: pneumococcal polysaccharide Pn33C
# [18] = target: pneumococcal polysaccharide Pn33D
# [19] = target: pneumococcal polysaccharide Pn33F
# [20] = target: pneumococcal polysaccharide Pn34
# [21] = target: pneumococcal polysaccharide Pn35A
# [22] = target: pneumococcal polysaccharide Pn35B
# [23] = target: pneumococcal polysaccharide Pn35C
# [24] = antibody concentration 2.8593 ng/mL
# [25] = antibody concentration 15.2894 ng/mL
# [26] = antibody concentration 81.7561 ng/mL
# [27] = antibody concentration 437.17 ng/mL
# [28] = antibody concentration 2337.65 ng/mL
# [29] = antibody concentration 12500 ng/mL
# [30] = antibody concentration 0.1 ng/mL
# [31] = antibody concentration 0.534724 ng/mL
binder,measurement,setting,value
4-173.4 (protein) chain 1: QLQLQESGPGLVKPSETLSLTCAVSGGSISSHYWSWIRQPPGKGLEWIGRFSAGGGSTDYNPSLKSRVTISTDTSKNQFTLNLNSVTAADTAVYYCTRGSYTSDYWGQGVLVTVSS chain 2: QAALTQSPSVSGSPGQSVTISCTGTSSDIGGYIRVSWYQQHPGKAPKLMIYEVSKRPSGVSDRFSGSKSGNTASLTISGLQAEDEADYYCFSYARGDTVLLGGGTRLTVL,fluorescence intensity,[1]; [24],18.2 MFI
same,fluorescence intensity,[1]; [25],18 MFI
same,fluorescence intensity,[1]; [26],18.5 MFI
same,fluorescence intensity,[1]; [27],21 MFI
same,fluorescence intensity,[1]; [28],23.5 MFI
same,fluorescence intensity,[1]; [29],30.5 MFI
same,fluorescence intensity,[2]; [30],16.5 MFI
same,fluorescence intensity,[2]; [31],15.5 MFI
same,fluorescence intensity,[2]; [24],16.5 MFI
same,fluorescence intensity,[2]; [25],14.5 MFI
same,fluorescence intensity,[2]; [26],14 MFI
same,fluorescence intensity,[2]; [27],15.5 MFI
same,fluorescence intensity,[2]; [28],17 MFI
same,fluorescence intensity,[2]; [29],20.5 MFI
same,fluorescence intensity,[3]; [30],17.2 MFI
same,fluorescence intensity,[3]; [31],17 MFI
same,fluorescence intensity,[3]; [24],17.5 MFI
same,fluorescence intensity,[3]; [25],16.8 MFI
same,fluorescence intensity,[3]; [26],17.5 MFI
same,fluorescence intensity,[3]; [27],18.5 MFI
same,fluorescence intensity,[3]; [28],19.5 MFI
same,fluorescence intensity,[3]; [29],30.5 MFI
same,fluorescence intensity,[4]; [30],17 MFI
same,fluorescence intensity,[4]; [31],18.5 MFI
same,fluorescence intensity,[4]; [24],17 MFI
same,fluorescence intensity,[4]; [25],15.5 MFI
same,fluorescence intensity,[4]; [26],16 MFI
same,fluorescence intensity,[4]; [27],17 MFI
same,fluorescence intensity,[4]; [28],23.8 MFI
same,fluorescence intensity,[4]; [29],30.5 MFI
same,fluorescence intensity,[5]; [30],23.5 MFI
same,fluorescence intensity,[5]; [31],24 MFI
same,fluorescence intensity,[5]; [24],25 MFI
same,fluorescence intensity,[5]; [25],23.5 MFI
same,fluorescence intensity,[5]; [26],24.5 MFI
same,fluorescence intensity,[5]; [27],28.5 MFI
same,fluorescence intensity,[5]; [28],29 MFI
same,fluorescence intensity,[5]; [29],36.5 MFI
same,fluorescence intensity,[6]; [30],31 MFI
same,fluorescence intensity,[6]; [31],29.5 MFI
same,fluorescence intensity,[6]; [24],31.8 MFI
same,fluorescence intensity,[6]; [25],30.5 MFI
same,fluorescence intensity,[6]; [26],30 MFI
same,fluorescence intensity,[6]; [27],32 MFI
same,fluorescence intensity,[6]; [28],32.5 MFI
same,fluorescence intensity,[6]; [29],40.5 MFI
same,fluorescence intensity,[7]; [30],16 MFI
same,fluorescence intensity,[7]; [31],16 MFI
same,fluorescence intensity,[7]; [24],18 MFI
same,fluorescence intensity,[7]; [25],16.5 MFI
same,fluorescence intensity,[7]; [26],17.5 MFI
same,fluorescence intensity,[7]; [27],18.2 MFI
same,fluorescence intensity,[7]; [28],25 MFI
same,fluorescence intensity,[7]; [29],79.2 MFI
same,fluorescence intensity,[8]; [30],28 MFI
same,fluorescence intensity,[8]; [31],27 MFI
same,fluorescence intensity,[8]; [24],28 MFI
same,fluorescence intensity,[8]; [25],27 MFI
same,fluorescence intensity,[8]; [26],26.2 MFI
same,fluorescence intensity,[8]; [27],28 MFI
same,fluorescence intensity,[8]; [28],28.5 MFI
same,fluorescence intensity,[8]; [29],35 MFI
same,fluorescence intensity,[9]; [30],31 MFI
same,fluorescence intensity,[9]; [31],29 MFI
same,fluorescence intensity,[9]; [24],30.5 MFI
same,fluorescence intensity,[9]; [25],29.5 MFI
same,fluorescence intensity,[9]; [26],28.5 MFI
same,fluorescence intensity,[9]; [27],30.8 MFI
same,fluorescence intensity,[9]; [28],32 MFI
same,fluorescence intensity,[9]; [29],53.8 MFI
same,fluorescence intensity,[10]; [30],15.5 MFI
same,fluorescence intensity,[10]; [31],16 MFI
same,fluorescence intensity,[10]; [24],17.5 MFI
same,fluorescence intensity,[10]; [25],16.5 MFI
same,fluorescence intensity,[10]; [26],16 MFI
same,fluorescence intensity,[10]; [27],18.5 MFI
same,fluorescence intensity,[10]; [28],20 MFI
same,fluorescence intensity,[10]; [29],48.5 MFI
same,fluorescence intensity,[11]; [30],16.2 MFI
same,fluorescence intensity,[11]; [31],20.5 MFI
same,fluorescence intensity,[11]; [24],88 MFI
same,fluorescence intensity,[11]; [25],230 MFI
same,fluorescence intensity,[11]; [26],1080 MFI
same,fluorescence intensity,[11]; [27],6060 MFI
same,fluorescence intensity,[11]; [28],7830 MFI
same,fluorescence intensity,[11]; [29],8110 MFI
same,fluorescence intensity,[12]; [30],13.5 MFI
same,fluorescence intensity,[12]; [31],13.5 MFI
same,fluorescence intensity,[12]; [24],14 MFI
same,fluorescence intensity,[12]; [25],12.5 MFI
same,fluorescence intensity,[12]; [26],13 MFI
same,fluorescence intensity,[12]; [27],14.5 MFI
same,fluorescence intensity,[12]; [28],18.5 MFI
same,fluorescence intensity,[12]; [29],52 MFI
same,fluorescence intensity,[13]; [30],18 MFI
same,fluorescence intensity,[13]; [31],16.5 MFI
same,fluorescence intensity,[13]; [24],16 MFI
same,fluorescence intensity,[13]; [25],16.8 MFI
same,fluorescence intensity,[13]; [26],18 MFI
same,fluorescence intensity,[13]; [27],19.5 MFI
same,fluorescence intensity,[13]; [28],21.5 MFI
same,fluorescence intensity,[13]; [29],35.8 MFI
same,fluorescence intensity,[14]; [30],27.8 MFI
same,fluorescence intensity,[14]; [31],28 MFI
same,fluorescence intensity,[14]; [24],28.5 MFI
same,fluorescence intensity,[14]; [25],28 MFI
same,fluorescence intensity,[14]; [26],29 MFI
same,fluorescence intensity,[14]; [27],33.5 MFI
same,fluorescence intensity,[14]; [28],40.5 MFI
same,fluorescence intensity,[14]; [29],56.8 MFI
same,fluorescence intensity,[15]; [30],17.5 MFI
same,fluorescence intensity,[15]; [31],18.5 MFI
same,fluorescence intensity,[15]; [24],17.5 MFI
same,fluorescence intensity,[15]; [25],19 MFI
same,fluorescence intensity,[15]; [26],17.5 MFI
same,fluorescence intensity,[15]; [27],17.2 MFI
same,fluorescence intensity,[15]; [28],24.5 MFI
same,fluorescence intensity,[15]; [29],132 MFI
same,fluorescence intensity,[16]; [30],17.8 MFI
same,fluorescence intensity,[16]; [31],18.5 MFI
same,fluorescence intensity,[16]; [24],17.5 MFI
same,fluorescence intensity,[16]; [25],18.2 MFI
same,fluorescence intensity,[16]; [26],18 MFI
same,fluorescence intensity,[16]; [27],17 MFI
same,fluorescence intensity,[16]; [28],20 MFI
same,fluorescence intensity,[16]; [29],20.5 MFI
same,fluorescence intensity,[17]; [30],19.5 MFI
same,fluorescence intensity,[17]; [31],19.5 MFI
same,fluorescence intensity,[17]; [24],21 MFI
same,fluorescence intensity,[17]; [25],19.5 MFI
same,fluorescence intensity,[17]; [26],18.5 MFI
same,fluorescence intensity,[17]; [27],18.8 MFI
same,fluorescence intensity,[17]; [28],21 MFI
same,fluorescence intensity,[17]; [29],28 MFI
same,fluorescence intensity,[18]; [30],16.5 MFI
same,fluorescence intensity,[18]; [31],16 MFI
same,fluorescence intensity,[18]; [24],15 MFI
same,fluorescence intensity,[18]; [25],15 MFI
same,fluorescence intensity,[18]; [26],17 MFI
same,fluorescence intensity,[18]; [27],17 MFI
same,fluorescence intensity,[18]; [28],18 MFI
same,fluorescence intensity,[18]; [29],19 MFI
same,fluorescence intensity,[19]; [30],13 MFI
same,fluorescence intensity,[19]; [31],12.5 MFI
same,fluorescence intensity,[19]; [24],12.5 MFI
same,fluorescence intensity,[19]; [25],12.8 MFI
same,fluorescence intensity,[19]; [26],12.5 MFI
same,fluorescence intensity,[19]; [27],16 MFI
same,fluorescence intensity,[19]; [28],20 MFI
same,fluorescence intensity,[19]; [29],78.5 MFI
same,fluorescence intensity,[20]; [30],14.2 MFI
same,fluorescence intensity,[20]; [31],13.5 MFI
same,fluorescence intensity,[20]; [24],14 MFI
same,fluorescence intensity,[20]; [25],12.5 MFI
same,fluorescence intensity,[20]; [26],12.5 MFI
same,fluorescence intensity,[20]; [27],15.5 MFI
same,fluorescence intensity,[20]; [28],15 MFI
same,fluorescence intensity,[20]; [29],18.5 MFI
same,fluorescence intensity,[21]; [30],17.5 MFI
same,fluorescence intensity,[21]; [31],16 MFI
same,fluorescence intensity,[21]; [24],16 MFI
same,fluorescence intensity,[21]; [25],16 MFI
same,fluorescence intensity,[21]; [26],15.8 MFI
same,fluorescence intensity,[21]; [27],16.5 MFI
same,fluorescence intensity,[21]; [28],19 MFI
same,fluorescence intensity,[21]; [29],34 MFI
same,fluorescence intensity,[22]; [30],18 MFI
same,fluorescence intensity,[22]; [31],19 MFI
same,fluorescence intensity,[22]; [24],16.5 MFI
same,fluorescence intensity,[22]; [25],17.5 MFI
same,fluorescence intensity,[22]; [26],19 MFI
same,fluorescence intensity,[22]; [27],18 MFI
same,fluorescence intensity,[22]; [28],18.5 MFI
same,fluorescence intensity,[22]; [29],33.8 MFI
same,fluorescence intensity,[23]; [30],19.8 MFI
same,fluorescence intensity,[23]; [31],20 MFI
same,fluorescence intensity,[23]; [24],19.5 MFI
same,fluorescence intensity,[23]; [25],19.5 MFI
same,fluorescence intensity,[23]; [26],19 MFI
same,fluorescence intensity,[23]; [27],19.2 MFI

# Fetched one by one from above, 6 records:
binder,measurement,setting,value
4-173.4 (protein) chain 1: QLQLQESGPGLVKPSETLSLTCAVSGGSISSHYWSWIRQPPGKGLEWIGRFSAGGGSTDYNPSLKSRVTISTDTSKNQFTLNLNSVTAADTAVYYCTRGSYTSDYWGQGVLVTVSS chain 2: QAALTQSPSVSGSPGQSVTISCTGTSSDIGGYIRVSWYQQHPGKAPKLMIYEVSKRPSGVSDRFSGSKSGNTASLTISGLQAEDEADYYCFSYARGDTVLLGGGTRLTVL,fluorescence intensity,[19]; [31],12.5 MFI
same,fluorescence intensity,[16]; [24],17.5 MFI
same,fluorescence intensity,[19]; [27],16 MFI
same,fluorescence intensity,[4]; [27],17 MFI
same,fluorescence intensity,[7]; [24],18 MFI
same,fluorescence intensity,[18]; [29],19 MFI
